{"source": "PubChem BioAssay AID1259308 – NCATS | 2017", "purpose": "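Knock-downs that increase output of a recombinant reporter protein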 (primary screen)", "system": "human HEK293 embryonic kidney cells stably expressing firefly luciferase (HEK-CMV-Luc2-Hygro)", "reagents": "single siRNA against human genes, 0.8 pmol siRNA per well", "time to read-out": "72 h", "measured": "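Luciferase light (ONE-Glo) measured on one replicate plate set and viability (CellTiter-Glo) on the other, scaled to a negative control siRNA, with robust z-scores and luciferase per cell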", "direction": "total luciferase, z-score: higher = more reporter protein produced", "call rule": "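Active when the median/MAD z-score for overall luciferase is greater than 3; a gene was taken forward for validation with new siRNAs if at least two of its three siRNAs passed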", "meaning of the calls": "active = raised luciferase; inactive = no rise", "note": "The deposit covers about 59,000 reagents; shown is a random part of them. About 1,510 of all reagents (2.6%) were called active. 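Calls use total luciferase alone and ignore viability, so some active siRNAs may act by altering cell number.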 Further read-outs or replicates are left out here. No sequences are given here."}
{"target gene":"PTPRA","PubChem SID":"SID160715383","total luciferase, z-score":-0.0288,"Call":"inactive"}
{"target gene":"PTPRA","PubChem SID":"SID160715384","total luciferase, z-score":-0.369,"Call":"inactive"}
{"target gene":"PTPRA","PubChem SID":"SID160715385","total luciferase, z-score":1.24,"Call":"inactive"}
{"target gene":"MFAP3","PubChem SID":"SID160777184","total luciferase, z-score":0.852,"Call":"inactive"}
{"target gene":"MFAP3","PubChem SID":"SID160777185","total luciferase, z-score":-0.0122,"Call":"inactive"}
{"target gene":"MFAP3","PubChem SID":"SID160777186","total luciferase, z-score":0.311,"Call":"inactive"}
{"target gene":"SPX","PubChem SID":"SID160750541","total luciferase, z-score":1.08,"Call":"inactive"}
{"target gene":"SPX","PubChem SID":"SID160750542","total luciferase, z-score":-0.224,"Call":"inactive"}
{"target gene":"SPX","PubChem SID":"SID160750544","total luciferase, z-score":0.607,"Call":"inactive"}
{"target gene":"DPYSL5","PubChem SID":"SID160745235","total luciferase, z-score":0.473,"Call":"inactive"}
{"target gene":"DPYSL5","PubChem SID":"SID160745236","total luciferase, z-score":-0.812,"Call":"inactive"}
{"target gene":"DPYSL5","PubChem SID":"SID160745237","total luciferase, z-score":0.391,"Call":"inactive"}
{"target gene":"C1orf174","PubChem SID":"SID160733083","total luciferase, z-score":2.39,"Call":"inactive"}
{"target gene":"C1orf174","PubChem SID":"SID160764228","total luciferase, z-score":0.318,"Call":"inactive"}
{"target gene":"C1orf174","PubChem SID":"SID160764230","total luciferase, z-score":1.17,"Call":"inactive"}
{"target gene":"ANXA8L1","PubChem SID":"SID160716717","total luciferase, z-score":-0.0233,"Call":"inactive"}
{"target gene":"ANXA8L1","PubChem SID":"SID160716727","total luciferase, z-score":-2.91,"Call":"inactive"}
{"target gene":"ANXA8L1","PubChem SID":"SID160730882","total luciferase, z-score":-0.662,"Call":"inactive"}
{"target gene":"ANXA8L1","PubChem SID":"SID160771814","total luciferase, z-score":-0.301,"Call":"inactive"}
{"target gene":"ANXA8L1","PubChem SID":"SID160771815","total luciferase, z-score":1.93,"Call":"inactive"}
{"target gene":"ANXA8L1","PubChem SID":"SID160771816","total luciferase, z-score":-1.18,"Call":"inactive"}
{"target gene":"ZFP36L2","PubChem SID":"SID160728944","total luciferase, z-score":-0.382,"Call":"inactive"}
{"target gene":"ZFP36L2","PubChem SID":"SID160728954","total luciferase, z-score":-3.12,"Call":"inactive"}
{"target gene":"ZFP36L2","PubChem SID":"SID160728965","total luciferase, z-score":0.707,"Call":"inactive"}
{"target gene":"FRMPD4","PubChem SID":"SID160723005","total luciferase, z-score":-0.921,"Call":"inactive"}
{"target gene":"FRMPD4","PubChem SID":"SID160723006","total luciferase, z-score":-2,"Call":"inactive"}
{"target gene":"FRMPD4","PubChem SID":"SID160723007","total luciferase, z-score":0.0271,"Call":"inactive"}
{"target gene":"LINC01091","PubChem SID":"SID160733884","total luciferase, z-score":-0.503,"Call":"inactive"}
{"target gene":"LINC01091","PubChem SID":"SID160769268","total luciferase, z-score":-1.99,"Call":"inactive"}
{"target gene":"LINC01091","PubChem SID":"SID160769270","total luciferase, z-score":-0.814,"Call":"inactive"}
{"target gene":"MIS12","PubChem SID":"SID160734920","total luciferase, z-score":-0.828,"Call":"inactive"}
{"target gene":"MIS12","PubChem SID":"SID160748459","total luciferase, z-score":1.95,"Call":"inactive"}
{"target gene":"MIS12","PubChem SID":"SID160748460","total luciferase, z-score":0.135,"Call":"inactive"}

3 entries from above in another layout.
target gene	PubChem SID	total luciferase, z-score	Call
ANXA8L1	SID160771816	-1.18	inactive
ZFP36L2	SID160728944	-0.382	inactive
ZFP36L2	SID160728954	-3.12	inactive
